Reference: PubChem BioAssay AID743121 (NCATS, 2013)

Test: 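Partners whose loss is lethal together with topoisomerase I blockade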 (primary screen)
Cells: MDA-MB-231 cells, a human breast cancer line
Reagents: single siRNA against human genes, 20 nM siRNA (0.8 pmol per well)
Timing: 120 h (drug added 48 h after transfection, read 72 h later)
Challenge: camptothecin 20 nM (about EC30) for 72 h; vehicle 0.1% DMSO in parallel plates
Detection: 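CellTiter-Glo ATP signal, scaled to control siRNA as percent viability; sensitisation given as log2 of untreated divided by camptothecin-treated viability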
Reading the numbers: log2 vehicle/camptothecin viability: higher = stronger sensitisation to camptothecin; viability with camptothecin and viability without drug: higher = more viable cells
Call rule: 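Each gene scored by redundant siRNA activity (RSA) over its individual siRNA ratios; a gene is called active at p < 0.001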
Shown is one part, drawn at random, of about 26,000 reagents. In the full data, 167 (0.63%) are marked active. 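Calls are per gene from RSA p-values that are not deposited; an individual active-marked siRNA can sensitise only weakly.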 The numbers tell different reagents against one gene apart.

Target gene	reagent no.	log2 vehicle/camptothecin viability	viability with camptothecin (% of control)	viability without drug (% of control)	Call
CRYGA (GeneID 1418)	1	-0.128	63.3	57.9	inactive
CRYGA (GeneID 1418)	2	0.0181	76.6	77.6	inactive
CRYGA (GeneID 1418)	3	-0.757	72.2	42.7	inactive
CRYGA (GeneID 1418)	4	-0.256	79.3	66.4	inactive
CRYGA (GeneID 1418)	5	-0.485	82.5	58.9	inactive
FBXW7 (GeneID 55294)	1	-0.5	71	50.2	inactive
FBXW7 (GeneID 55294)	2	-0.21	84.3	72.9	inactive
FBXW7 (GeneID 55294)	3	-0.117	65.7	60.6	inactive
FBXW7 (GeneID 55294)	4	0.156	80.6	89.8	inactive
OR2M4 (GeneID 26245)	1	-0.669	74.2	46.7	inactive
OR2M4 (GeneID 26245)	2	0.484	20.6	28.8	inactive
OR2M4 (GeneID 26245)	3	-0.113	88.8	82.1	inactive
OR2M4 (GeneID 26245)	4	-0.241	55.3	46.8	inactive
STAP1 (GeneID 26228)	1	-0.1	99.5	92.8	inactive
STAP1 (GeneID 26228)	2	0.287	22.9	27.9	inactive
STAP1 (GeneID 26228)	3	0.743	26.5	44.3	inactive
STAP1 (GeneID 26228)	4	-0.243	80.3	67.8	inactive
RDH12 (GeneID 145226)	1	-0.403	85.5	64.7	inactive
RDH12 (GeneID 145226)	2	0.0113	97.1	97.9	inactive
RDH12 (GeneID 145226)	3	0.505	33.7	47.8	inactive
USP18 (GeneID 11274)	1	0.472	72.9	101	inactive
USP18 (GeneID 11274)	2	0.292	37.6	46.1	inactive
USP18 (GeneID 11274)	3	0.034	79.9	81.8	inactive
USP18 (GeneID 11274)	4	0.364	75.1	96.6	inactive
USP18 (GeneID 11274)	5	0.401	47.7	63	inactive
USP18 (GeneID 11274)	6	0.0354	50.1	51.4	inactive
USP18 (GeneID 11274)	7	-0.225	117	100	inactive
USP18 (GeneID 11274)	8	-0.0136	79.5	78.7	inactive
ALDH3B1 (GeneID 221)	1	0.386	41	53.6	inactive
ALDH3B1 (GeneID 221)	2	-0.425	50.3	37.4	inactive
ALDH3B1 (GeneID 221)	3	-0.401	76.4	57.8	inactive
ALDH3B1 (GeneID 221)	4	1.45	11.8	32.3	inactive
SMAD5 (GeneID 4090)	1	-0.046	97.5	94.4	inactive
SMAD5 (GeneID 4090)	2	-0.555	40.2	27.4	inactive
SMAD5 (GeneID 4090)	3	-0.667	18.2	11.5	inactive
SMAD5 (GeneID 4090)	4	-0.647	92.2	58.9	inactive
ARHGEF4 (GeneID 50649)	1	0.376	5.32	6.9	inactive
ARHGEF4 (GeneID 50649)	2	-0.212	103	88.9	inactive
ARHGEF4 (GeneID 50649)	3	-0.047	25.8	25	inactive
ARHGEF4 (GeneID 50649)	4	-0.208	64.1	55.5	inactive
PFN1 (GeneID 5216)	1	-0.42	63.9	47.8	inactive
PFN1 (GeneID 5216)	2	-0.422	50.7	37.8	inactive
PFN1 (GeneID 5216)	3	-0.651	86.5	55.1	inactive
PFN1 (GeneID 5216)	4	0.0892	39.1	41.6	inactive
RPS6KA1 (GeneID 6195)	1	-0.624	79.8	51.8	inactive
RPS6KA1 (GeneID 6195)	2	-0.252	95.1	79.9	inactive
RPS6KA1 (GeneID 6195)	3	-0.494	94.4	67.1	inactive
RPS6KA1 (GeneID 6195)	4	-0.0795	86.3	81.7	inactive
ALOX5AP (GeneID 241)	1	-0.634	91.2	58.7	inactive
ALOX5AP (GeneID 241)	2	-0.0763	114	108	inactive
ALOX5AP (GeneID 241)	3	0.0906	95.6	102	inactive
ALOX5AP (GeneID 241)	4	-0.291	64.1	52.3	inactive
NMT2 (GeneID 9397)	1	-0.472	93.1	67.1	inactive
NMT2 (GeneID 9397)	2	-0.099	118	110	inactive
NMT2 (GeneID 9397)	3	0.447	41.8	56.9	inactive
NMT2 (GeneID 9397)	4	0.0779	89.2	94.1	inactive
RARS1 (GeneID 5917)	1	-0.155	68.1	61.1	inactive
RARS1 (GeneID 5917)	2	-0.282	85.9	70.6	inactive
RARS1 (GeneID 5917)	3	-0.404	104	78.9	inactive
DUSP10 (GeneID 11221)	1	-0.103	99.8	92.9	inactive
DUSP10 (GeneID 11221)	2	-0.334	26.6	21.1	inactive
DUSP10 (GeneID 11221)	3	-0.409	40.9	30.8	inactive
DUSP10 (GeneID 11221)	4	-0.0286	83.9	82.2	inactive
C7 (GeneID 730)	1	-0.304	54.2	43.9	inactive
C7 (GeneID 730)	2	-0.261	75.8	63.2	inactive
C7 (GeneID 730)	3	0.443	61.2	83.1	inactive
C7 (GeneID 730)	4	0.132	39.2	43	inactive
ZRANB3 (GeneID 84083)	1	-0.218	96.8	83.3	inactive
ZRANB3 (GeneID 84083)	2	0.112	34.3	37.1	inactive
ZRANB3 (GeneID 84083)	3	-0.288	45.2	37	inactive
ZRANB3 (GeneID 84083)	4	-0.142	95.3	86.4	inactive

Copied from the entries so far for reference:
Target gene	reagent no.	log2 vehicle/camptothecin viability	viability with camptothecin (% of control)	viability without drug (% of control)	Call
PFN1 (GeneID 5216)	3	-0.651	86.5	55.1	inactive
PFN1 (GeneID 5216)	4	0.0892	39.1	41.6	inactive
RPS6KA1 (GeneID 6195)	1	-0.624	79.8	51.8	inactive
RPS6KA1 (GeneID 6195)	2	-0.252	95.1	79.9	inactive
RPS6KA1 (GeneID 6195)	3	-0.494	94.4	67.1	inactive
RPS6KA1 (GeneID 6195)	4	-0.0795	86.3	81.7	inactive
ALOX5AP (GeneID 241)	1	-0.634	91.2	58.7	inactive
ALOX5AP (GeneID 241)	2	-0.0763	114	108	inactive
ALOX5AP (GeneID 241)	3	0.0906	95.6	102	inactive
